These are yes or no findings as the source states them, for the method shown. Some binding calls cover weakened binding; strength is not graded here.

The chains behind the UniProt entries cited, without tags or fusion partners. Where a name states a change or a piece, a line headed by the entry shows the natural chain unless it says otherwise.
UniProt P07288: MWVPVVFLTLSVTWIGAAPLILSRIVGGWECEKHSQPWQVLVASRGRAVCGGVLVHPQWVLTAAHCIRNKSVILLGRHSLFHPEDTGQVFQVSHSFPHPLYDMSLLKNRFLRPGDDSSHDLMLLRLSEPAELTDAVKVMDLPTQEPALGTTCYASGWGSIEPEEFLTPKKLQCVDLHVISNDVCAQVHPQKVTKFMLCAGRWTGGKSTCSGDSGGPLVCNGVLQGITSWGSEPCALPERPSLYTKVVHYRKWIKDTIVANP

The assay concerns the target Intact PSA (iPSA) Antigen (human) (UniProt P07288). Briefly: affinity chromatography, antibody on a streptavidin cartridge, antigen from insect cell lysate.

B1: biotinylated monoclonal antibody 5A10 (antibody, V domains shown)
VH: EVQLVESGPGILQPSQTLSLTCSFSGFSLSTTGMGVSWIRQPSGKGLEWLAHLYWDEDKRYNPSLKSRLTISEDSSRNQVFLKITSVGPADSATYYCARKGYYGYFDYWGQGTALTVSS
VL: DIVMTQSQKFMSTSVGDRVSVTCKASQNVNTDVAWYQQKPGQSPKALIFSTSYRSSGVPDRFTGSGSGTDFTLTITNVQSEDLAEYFCQQYSNYPLTFGAGTKVDLN
modifications: biotinylated (site not stated)
Regarding B1, the binding entry was “binds”.

The values are drawn from patent publication US20160025732A1.
